Results from publication doi:10.1101/2024.09.09.611999.
Results are given in words; binding and its absence hold for the method and conditions named. Binding seen in cells or lysates may run through a third protein. Some binding calls cover weakened binding; strength is not graded here.

By UniProt entry, the sequences of proteins in these tests, tags left out.
UniProt Q13315: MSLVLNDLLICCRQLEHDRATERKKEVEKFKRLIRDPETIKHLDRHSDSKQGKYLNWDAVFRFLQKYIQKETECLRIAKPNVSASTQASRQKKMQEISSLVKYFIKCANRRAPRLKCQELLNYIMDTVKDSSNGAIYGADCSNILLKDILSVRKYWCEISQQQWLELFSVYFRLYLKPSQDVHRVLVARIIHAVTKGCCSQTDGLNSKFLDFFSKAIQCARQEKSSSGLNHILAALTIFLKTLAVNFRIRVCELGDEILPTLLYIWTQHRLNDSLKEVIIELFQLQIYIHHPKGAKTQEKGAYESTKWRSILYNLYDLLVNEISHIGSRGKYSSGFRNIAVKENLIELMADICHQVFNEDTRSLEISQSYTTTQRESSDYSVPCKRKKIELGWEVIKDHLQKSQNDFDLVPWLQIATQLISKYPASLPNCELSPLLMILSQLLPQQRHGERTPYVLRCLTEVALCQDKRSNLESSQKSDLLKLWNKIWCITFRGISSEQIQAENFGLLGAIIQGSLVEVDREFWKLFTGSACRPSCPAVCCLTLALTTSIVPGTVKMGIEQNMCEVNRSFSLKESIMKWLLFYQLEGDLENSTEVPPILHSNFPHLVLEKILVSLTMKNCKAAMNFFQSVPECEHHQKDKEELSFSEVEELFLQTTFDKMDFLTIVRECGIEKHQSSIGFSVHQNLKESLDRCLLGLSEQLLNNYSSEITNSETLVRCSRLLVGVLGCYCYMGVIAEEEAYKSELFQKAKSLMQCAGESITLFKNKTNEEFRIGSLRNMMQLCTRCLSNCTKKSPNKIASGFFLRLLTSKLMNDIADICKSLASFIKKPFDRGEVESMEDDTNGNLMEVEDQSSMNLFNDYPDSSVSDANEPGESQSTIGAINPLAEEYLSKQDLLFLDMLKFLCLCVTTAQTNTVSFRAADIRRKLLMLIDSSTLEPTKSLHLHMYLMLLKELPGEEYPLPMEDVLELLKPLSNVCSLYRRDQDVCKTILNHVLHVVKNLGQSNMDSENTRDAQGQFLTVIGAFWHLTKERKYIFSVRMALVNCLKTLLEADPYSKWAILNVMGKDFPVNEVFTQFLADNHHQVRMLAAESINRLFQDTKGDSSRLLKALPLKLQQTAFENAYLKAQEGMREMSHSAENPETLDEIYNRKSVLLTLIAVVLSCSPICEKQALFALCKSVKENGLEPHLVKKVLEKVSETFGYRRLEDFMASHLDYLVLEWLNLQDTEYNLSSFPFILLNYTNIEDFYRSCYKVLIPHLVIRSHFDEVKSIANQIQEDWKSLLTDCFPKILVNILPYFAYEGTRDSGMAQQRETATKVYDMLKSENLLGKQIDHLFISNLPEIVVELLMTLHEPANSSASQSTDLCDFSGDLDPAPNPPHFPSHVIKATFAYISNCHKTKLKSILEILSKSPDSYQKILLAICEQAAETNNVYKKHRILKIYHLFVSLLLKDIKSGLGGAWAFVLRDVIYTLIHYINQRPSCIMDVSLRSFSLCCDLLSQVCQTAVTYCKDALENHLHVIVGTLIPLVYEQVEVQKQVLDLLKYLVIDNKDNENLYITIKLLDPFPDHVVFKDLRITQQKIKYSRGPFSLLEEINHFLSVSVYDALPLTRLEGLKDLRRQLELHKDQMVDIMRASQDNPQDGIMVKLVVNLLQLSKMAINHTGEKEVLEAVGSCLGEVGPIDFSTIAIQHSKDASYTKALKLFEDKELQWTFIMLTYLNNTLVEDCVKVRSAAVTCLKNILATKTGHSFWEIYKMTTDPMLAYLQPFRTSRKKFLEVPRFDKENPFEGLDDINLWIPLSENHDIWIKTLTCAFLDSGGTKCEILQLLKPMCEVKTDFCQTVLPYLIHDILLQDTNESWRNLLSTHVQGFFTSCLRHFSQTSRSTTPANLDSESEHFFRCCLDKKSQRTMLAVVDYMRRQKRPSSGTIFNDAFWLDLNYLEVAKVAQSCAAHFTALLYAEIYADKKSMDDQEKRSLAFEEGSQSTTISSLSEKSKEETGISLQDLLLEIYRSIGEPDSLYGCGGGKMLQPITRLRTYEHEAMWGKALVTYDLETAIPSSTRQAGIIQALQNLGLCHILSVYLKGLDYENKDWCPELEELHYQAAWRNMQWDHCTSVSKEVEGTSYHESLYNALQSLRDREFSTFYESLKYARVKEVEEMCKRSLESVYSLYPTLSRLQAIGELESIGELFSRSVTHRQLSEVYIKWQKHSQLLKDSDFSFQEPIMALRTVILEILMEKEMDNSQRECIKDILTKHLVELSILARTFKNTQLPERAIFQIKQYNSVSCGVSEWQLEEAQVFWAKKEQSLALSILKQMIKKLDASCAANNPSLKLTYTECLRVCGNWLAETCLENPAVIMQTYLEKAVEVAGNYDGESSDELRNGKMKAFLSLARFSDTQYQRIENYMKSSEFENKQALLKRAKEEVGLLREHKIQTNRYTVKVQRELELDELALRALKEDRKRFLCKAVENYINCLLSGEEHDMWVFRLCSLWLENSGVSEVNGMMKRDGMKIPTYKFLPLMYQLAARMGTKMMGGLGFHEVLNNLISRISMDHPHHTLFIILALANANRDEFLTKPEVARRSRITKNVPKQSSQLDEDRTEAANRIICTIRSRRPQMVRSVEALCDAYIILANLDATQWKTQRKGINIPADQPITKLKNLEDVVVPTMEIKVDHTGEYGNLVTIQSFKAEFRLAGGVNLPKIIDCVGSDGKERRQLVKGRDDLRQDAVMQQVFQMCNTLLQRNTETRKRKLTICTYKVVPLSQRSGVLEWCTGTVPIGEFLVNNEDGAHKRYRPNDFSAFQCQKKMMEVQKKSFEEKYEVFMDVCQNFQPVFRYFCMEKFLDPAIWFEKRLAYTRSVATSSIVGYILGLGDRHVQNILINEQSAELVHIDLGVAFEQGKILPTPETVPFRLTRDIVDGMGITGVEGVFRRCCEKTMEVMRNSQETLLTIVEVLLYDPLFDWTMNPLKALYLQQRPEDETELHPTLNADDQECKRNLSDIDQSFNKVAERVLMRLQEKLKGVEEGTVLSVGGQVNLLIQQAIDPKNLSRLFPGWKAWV
UniProt P11142: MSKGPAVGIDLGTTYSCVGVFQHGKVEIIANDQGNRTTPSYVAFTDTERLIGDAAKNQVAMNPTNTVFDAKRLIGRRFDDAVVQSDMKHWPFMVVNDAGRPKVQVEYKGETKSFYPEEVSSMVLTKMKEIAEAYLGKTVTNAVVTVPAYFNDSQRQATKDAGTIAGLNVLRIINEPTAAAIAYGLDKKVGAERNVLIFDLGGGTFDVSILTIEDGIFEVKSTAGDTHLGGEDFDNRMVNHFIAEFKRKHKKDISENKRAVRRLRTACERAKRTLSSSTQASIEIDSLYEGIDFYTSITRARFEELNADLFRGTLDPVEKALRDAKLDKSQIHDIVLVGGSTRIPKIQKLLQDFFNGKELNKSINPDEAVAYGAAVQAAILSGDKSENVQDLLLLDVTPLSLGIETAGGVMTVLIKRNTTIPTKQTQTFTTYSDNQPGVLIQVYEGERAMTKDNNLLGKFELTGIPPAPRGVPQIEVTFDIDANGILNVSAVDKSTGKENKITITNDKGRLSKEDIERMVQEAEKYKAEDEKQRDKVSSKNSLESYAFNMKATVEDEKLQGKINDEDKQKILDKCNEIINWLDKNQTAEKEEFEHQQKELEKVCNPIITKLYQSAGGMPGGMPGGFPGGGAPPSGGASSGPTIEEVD
UniProt P06748: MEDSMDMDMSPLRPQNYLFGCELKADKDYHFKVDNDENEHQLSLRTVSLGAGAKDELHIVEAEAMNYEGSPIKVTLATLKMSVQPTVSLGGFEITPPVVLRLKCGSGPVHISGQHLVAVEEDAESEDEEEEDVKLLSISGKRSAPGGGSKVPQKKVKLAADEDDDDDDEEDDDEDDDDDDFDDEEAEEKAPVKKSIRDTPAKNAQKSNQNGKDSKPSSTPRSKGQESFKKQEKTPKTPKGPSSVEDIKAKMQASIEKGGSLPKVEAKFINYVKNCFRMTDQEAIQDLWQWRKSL

Molecular target: phosphorylated ATM (human (endogenous in PSC27)) (UniProt Q13315)
Assay: co-IP

Substance: HSPA8 (from UniProt P11142 1-646)
- binding: binds

Substance: NPM1 (from UniProt P06748 1-294)
- binding: binds
